# Structures can show the parent of a compound that is named as a salt. Some of the results follow. The calls rarely recur for the same compound in another form.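 Kinases, fused to nanoluciferase, were expressed in K562 cells; luminescence was measured every 4 h from 2 to 18 h as percent of control (DMSO = 100%, positive control = 0%). A time point is decreased if signal falls significantly (2 sigma). Hits were called by the authors by a rule that is not shown; the count of time points alone does not decide it.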
# Protein sequences, listed by entry. Tags and fused reporters are not part of them. Lines headed by an entry give the natural chain unless they say otherwise; changes in a name come on top.
# UniProt P43403: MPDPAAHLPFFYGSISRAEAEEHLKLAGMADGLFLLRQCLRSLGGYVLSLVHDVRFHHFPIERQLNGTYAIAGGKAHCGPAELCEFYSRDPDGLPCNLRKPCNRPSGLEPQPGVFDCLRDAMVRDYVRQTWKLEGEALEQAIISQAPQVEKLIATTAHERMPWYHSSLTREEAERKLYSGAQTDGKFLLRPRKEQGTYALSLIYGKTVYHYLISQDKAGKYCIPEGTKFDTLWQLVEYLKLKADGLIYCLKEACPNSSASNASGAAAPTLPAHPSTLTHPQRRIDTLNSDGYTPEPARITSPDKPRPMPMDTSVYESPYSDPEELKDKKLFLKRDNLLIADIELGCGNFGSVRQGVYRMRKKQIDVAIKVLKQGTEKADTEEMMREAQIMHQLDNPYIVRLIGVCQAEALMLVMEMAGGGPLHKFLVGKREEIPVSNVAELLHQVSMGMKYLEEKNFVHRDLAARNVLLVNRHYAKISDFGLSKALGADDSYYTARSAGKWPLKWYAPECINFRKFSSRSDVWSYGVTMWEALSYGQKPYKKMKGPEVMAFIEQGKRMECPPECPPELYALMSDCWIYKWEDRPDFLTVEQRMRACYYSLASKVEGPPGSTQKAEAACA
# UniProt P00519, whole entry: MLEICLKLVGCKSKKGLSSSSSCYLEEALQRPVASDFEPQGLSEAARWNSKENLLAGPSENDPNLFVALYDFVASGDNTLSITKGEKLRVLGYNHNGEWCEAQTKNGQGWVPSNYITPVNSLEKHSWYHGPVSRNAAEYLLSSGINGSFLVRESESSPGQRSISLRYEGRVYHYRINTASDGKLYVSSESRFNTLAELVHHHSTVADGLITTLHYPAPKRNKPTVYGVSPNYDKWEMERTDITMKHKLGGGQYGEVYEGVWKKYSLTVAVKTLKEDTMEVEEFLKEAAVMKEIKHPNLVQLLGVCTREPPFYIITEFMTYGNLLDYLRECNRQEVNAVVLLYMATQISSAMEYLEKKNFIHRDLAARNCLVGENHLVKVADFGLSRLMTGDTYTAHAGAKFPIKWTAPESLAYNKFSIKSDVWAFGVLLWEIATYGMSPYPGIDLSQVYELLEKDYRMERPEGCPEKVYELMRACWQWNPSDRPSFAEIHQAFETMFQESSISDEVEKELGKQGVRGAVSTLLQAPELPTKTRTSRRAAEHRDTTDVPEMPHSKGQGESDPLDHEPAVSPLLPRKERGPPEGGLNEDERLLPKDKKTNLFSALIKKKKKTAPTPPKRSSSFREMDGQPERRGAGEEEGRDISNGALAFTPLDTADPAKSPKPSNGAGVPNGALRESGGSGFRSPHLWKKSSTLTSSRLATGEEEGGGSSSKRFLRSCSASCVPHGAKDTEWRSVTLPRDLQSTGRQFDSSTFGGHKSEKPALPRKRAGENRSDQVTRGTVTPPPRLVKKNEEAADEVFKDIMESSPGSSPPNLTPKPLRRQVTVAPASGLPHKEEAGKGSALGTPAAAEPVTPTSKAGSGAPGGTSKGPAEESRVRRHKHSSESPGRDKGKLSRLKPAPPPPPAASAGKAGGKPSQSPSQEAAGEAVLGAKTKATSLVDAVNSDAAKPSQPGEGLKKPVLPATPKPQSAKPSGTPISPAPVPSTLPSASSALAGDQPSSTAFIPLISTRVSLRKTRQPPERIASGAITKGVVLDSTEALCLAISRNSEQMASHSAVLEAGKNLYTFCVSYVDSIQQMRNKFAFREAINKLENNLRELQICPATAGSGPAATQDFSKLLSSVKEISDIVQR
# Biological target: ZAP70 (UniProt P43403)
# Assay: kinase-Nluc reporter destabilization hit call (1 = scored as downregulated) (binary); higher = compound decreases kinase abundance
# Details: K562; 2-18 h
row,SMILES,kinase-Nluc reporter destabilization hit call
1,N#Cc1c(-c2ccccc2)cc(-c2cc(Br)ccc2O)[nH]c1=O (10 µM),inactive: 0
2,CCn1c(-c2nonc2N)nc2cnc(Oc3cccc(NC(=O)c4ccc(OCCN5CCOCC5)cc4)c3)cc21 (10 µM),inactive: 0
3,CO[C@H]1C[C@@H]2CC[C@@H](C)[C@@](O)(O2)C(=O)C(=O)N2CCCC[C@H]2C(=O)O[C@H]([C@H](C)C[C@@H]2CC[C@@H](O)[C@H](OC)C2)CC(=O)[C@H](C)/C=C(\C)[C@@H](O)[C@@H](OC)C(=O)[C@H](C)C[C@H](C)/C=C/C=C/C=C/1C [Rapamycin] (10 µM),inactive: 0
4,CC(C)=CCC[C@](C)(O[C@@H]1O[C@H](CO)[C@@H](O)[C@H](O)[C@H]1O)[C@H]1CC[C@]2(C)[C@@H]1[C@H](O)C[C@@H]1[C@@]3(C)CC[C@H](O)C(C)(C)[C@@H]3[C@@H](O[C@@H]3O[C@H](CO)[C@@H](O)[C@H](O)[C@H]3O[C@@H]3O[C@@H](C)[C@H](O)[C@@H](O)[C@H]3O)C[C@]12C [Ginsenoside Re] (10 µM),inactive: 0
5,Cn1c(=O)c(F)c(Nc2ccc(I)cc2F)c2c(=O)n(C[C@@H](O)CO)cnc21 (10 µM),inactive: 0

# Biological target: ABL1 (UniProt P00519)
# Assay: number of time points (of 5) at which kinase-Nluc abundance scored as decreased, DMSO-normalised (count); higher = more persistent destabilization
# Details: K562; 2-18 h
row,SMILES,number of time points
1,NCc1ccc(Nc2ncc(F)c(Nc3ccccc3)n2)cc1 (10 µM),0
2,C=C(C)C(=O)Nc1cccc(-c2ncnc3[nH]cc(C(=O)OCC)c23)c1 (10 µM),0
3,CCOc1cc(C(=O)N2CCC(N3CCN(C)CC3)CC2)ccc1Nc1ncc2c(n1)N(C1CCCC1)c1ccccc1C(=O)N2C (10 µM),0
4,CCOc1ccc(C(=O)Nc2ncc([N+](=O)[O-])s2)cc1 (10 µM),0
5,CNC(=O)Nc1ccc(-c2cc(-c3ccnc(Nc4ccc(C)c(S(=O)(=O)N(C)C)c4)n3)ccn2)cc1 [hSMG-1 inhibitor 11e] (2.5 µM),4
6,CNC(=O)c1ccc(-c2cnc3cnc(C(=O)N(C)c4ccc(Cl)cc4)cn23)cc1 (2.5 µM),0
7,COc1cccc(-n2c(=O)[nH]c3cc(Cl)n(-c4ccc(-c5cccc(OC)c5O)cc4)c3c2=O)c1 (2.5 µM),0
8,O=C(Nc1cccnc1)c1cc(C(=O)c2c(F)cccc2Br)c[nH]1 (10 µM),0
9,CN(CC(=O)N(Cc1ccc(C2CCCCC2)cc1)c1ccc(C(=O)O)cc1)S(=O)(=O)c1c(F)c(F)c(F)c(F)c1F (2.5 µM),0
10,COc1c(NC(=O)C(=O)c2ccc(OCCN3CCOCC3)c3ccccc23)cc(C(C)(C)C)cc1NS(C)(=O)=O (2.5 µM),0
11,CC(C)CC1(O)CCN(C(=O)c2ccc(NS(=O)(=O)c3cccc4nccnc34)cc2)CC1 (10 µM),0
12,O=C(/C=C/c1ccc(O)c(O)c1)c1ccc(O[C@@H]2O[C@H](CO)[C@@H](O)[C@H](O)[C@H]2O)c(O)c1O [Marein] (10 µM),0
13,Cc1cc2cc(Nc3ccnc(Nc4ccc5[nH]c(C)cc5c4)n3)ccc2[nH]1 (2.5 µM),2
14,Cc1cc(Nc2cc(Cl)nc(Oc3ccc([N+](=O)[O-])cc3)n2)n[nH]1 [Autophinib] (2.5 µM),0
15,Fc1ccc(-c2nc(-c3ccccc3F)[nH]c2-c2ccncc2)cc1 (2.5 µM),0
16,OC(COc1ccc(C(F)(F)F)cc1)CN(Cc1ccccc1)Cc1ccccc1 (stereo not drawn) (2.5 µM),0
17,COc1ccc2[nH]cc(/C=C3\C(=O)Nc4ccc(NC(=O)CCN5CCCCC5)cc43)c2c1 (2.5 µM),0
18,CS(=O)(=O)c1ccc(-c2noc(C(F)(F)F)c2-c2ccccc2)cc1 (10 µM),0
19,COCCO[C@@H]1[C@H](O)[C@@H](CO)O[C@H]1n1cnc2c(=O)[nH]c(N)nc21 [2′-O-(2-Methoxyethyl)guanosine] (10 µM),0
20,Cn1cnc(-c2cc3nccc(Oc4ccc(NC(=S)NC(=O)Cc5ccccc5)cc4F)c3s2)c1 [MGCD-265 analog] (10 µM),4
21,Cc1noc(C)c1-c1ccc(-c2cc(C(N)=O)c(NC(N)=O)s2)c(O[C@H]2CCNC2)c1 (10 µM),0
22,Cc1c(CN2CCN(S(C)(=O)=O)CC2)sc2c(N3CCOCC3)nc(-c3cnc(N)nc3)nc12 (2.5 µM),0
23,CC(C)CN(CC(=O)N1CCN(CC(OCc2ccc3ccccc3c2)c2ccc(Cl)cc2Cl)CC1)CC(C)C (stereo not drawn) [LYN-1604 (dihydrochloride)] (2.5 µM),0

# Sorted by molecular weight (rising): three of the compounds above.
row,SMILES,number of time points
17,COc1ccc2[nH]cc(/C=C3\C(=O)Nc4ccc(NC(=O)CCN5CCCCC5)cc43)c2c1 (2.5 µM),0
23,CC(C)CN(CC(=O)N1CCN(CC(OCc2ccc3ccccc3c2)c2ccc(Cl)cc2Cl)CC1)CC(C)C (stereo not drawn) [LYN-1604 (dihydrochloride)] (2.5 µM),0
9,CN(CC(=O)N(Cc1ccc(C2CCCCC2)cc1)c1ccc(C(=O)O)cc1)S(=O)(=O)c1c(F)c(F)c(F)c(F)c1F (2.5 µM),0

# — the supplement of paper PMC12823440, “Inhibitors supercharge kinase turnover through native proteolytic circuits” (Nature, 2025)
